Measured values published in PMC3448731.
Results are given in words; binding and its absence hold for the method and conditions named. In cells and extracts the contact can be indirect. Binding can be weak; no strength is given.

Target: T1, Aquaporin-1, endogenous in rat kidney cortex (rat (endogenous in kidney cortex)) (UniProt P29975)
T1 sequence: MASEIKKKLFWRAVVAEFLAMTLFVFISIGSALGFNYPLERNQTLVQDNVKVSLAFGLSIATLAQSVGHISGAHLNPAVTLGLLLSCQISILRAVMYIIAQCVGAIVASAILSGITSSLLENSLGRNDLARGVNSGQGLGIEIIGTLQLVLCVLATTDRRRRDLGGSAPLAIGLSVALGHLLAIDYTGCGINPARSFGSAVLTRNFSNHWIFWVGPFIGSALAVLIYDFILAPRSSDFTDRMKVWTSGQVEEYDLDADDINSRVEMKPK
Assay: co-IP; rat kidney cortex lysate, 0.5 mg/ml; immunoprecipitated with anti-AQP1 or anti-MHC antibody and protein A-agarose, blotted with anti-MHC or anti-AQP1; IgG as negative control

Myosin heavy chain, endogenous in rat kidney
binding: binds
